Laboratory results: patent publication US12729225B2, “Non-canonical SWI/SNF complex and uses thereof” (Dana-Farber Cancer Institute, Inc., priority 2018, dated 2026)

System: mSWI/SNF complexes
Test: mSWI/SNF complex purification with HA-tagged baits and mass spectrometry (peptide counts)
Parameters: species or system human
Conditions: 293_HA-BRD7 bait purification, mass spectrometry; for Total: total peptide count per identified protein; for Unique: unique peptide count per identified protein

Molecule	Total	Unique
KRR1 (protein, UniProt Q13601 2-381, looked up) KRR1 small subunit processome …: ASPSLERPEKGAGKSEFRNQKPKPENQDESELLTVPDGWKEPAFSKEDNPRGLLEESSFATLFPKYREAYLKECWPLVQKALNEHHVNATLDLIEGSMTVCTTKKTFDPYIIIRARDLIKLLARSVSFEQAVRILQDDVACDIIKIGSLVRNKERFVKRRQRLIGPKGSTLKALELLTNCYIMVQGNTVSAIGPFSGLKEVRKVVLDTMKNIHPIYNIKSLMIKRELAKDSELRSQSWERFLPQFKHKNVNKRKEPKKKTVKKEYTPFPPPQPESQIDKELASGEYFLKANQKKRQKMEAIKAKQAEAISKRQEERNKAFIPPKEKPIVKPKEASTETKIDVASIKEKVKKAKNKKLGALTAEEIALKMEADEKKKKKKK	1	1
CCT2 (protein, UniProt P78371 2-535, looked up) T-complex protein 1 subunit …: ASLSLAPVNIFKAGADEERAETARLTSFIGAIAIGDLVKSTLGPKGMDKILLSSGRDASLMVTNDGATILKNIGVDNPAAKVLVDMSRVQDDEVGDGTTSVTVLAAELLREAESLIAKKIHPQTIIAGWREATKAAREALLSSAVDHGSDEVKFRQDLMNIAGTTLSSKLLTHHKDHFTKLAVEAVLRLKGSGNLEAIHIIKKLGGSLADSYLDEGFLLDKKIGVNQPKRIENAKILIANTGMDTDKIKIFGSRVRVDSTAKVAEIEHAEKEKMKEKVERILKHGINCFINRQLIYNYPEQLFGAAGVMAIEHADFAGVERLALVTGGEIASTFDHPELVKLGSCKLIEEVMIGEDKLIHFSGVALGEACTIVLRGATQQILDEAERSLHDALCVLAQTVKDSRTVYGGGCSEMLMAHAVTQLANRTPGKEAVAMESYAKALRMLPTIIADNAGYDSADLVAQLRAAHSEGNTTAGLDMREGTIGDMAILGITESFQVKRQVLLSAAEAAEVILRVDNIIKAAPRKRVPDHHPC	1	1
NUP62 (protein) SGFNFGGTGAPTGGFTFGTAKTATTTPATGFSFSTSGTGGFNFGAPFQPATSTPSTGLFSLATQTPATQTTGFTFGTATLASGGTGFSLGIGASKLNLSNTAATPAMANPSGFGLGSSNLTNAISSTVTSSQGTAPTGFVFGPSTTSVAPATTSGGFSFTGGSTAQPSGFNIGSAGNSAQPTAPATLPFTPATPAATTAGATQPAAPTPTATITSTGPSLFASIATAPTSSATTGLSLCTPVTTAGAPTAGTQGFSLKAPGAASGTSTTTSTAATATATTTSSSSTTGFALNLKPLAPAGIPSNTAAAVTAPPGPGAAAGAAASSAMTYAQLESLINKWSLELEDQERHFLQQATQVNAWDRTLIENGEKITSLHREVEKVKLDQKRLDQELDFILSQQKELEDLLSPLEELVKEQSGTIYLQHADEEREKTYKLAENIDAQLKRMAQDLKDIIEHLNTSGAPADTSDPLQQICKILNAHMDSLQWIDQNSALLQRKVEEVTKVCEGRRKEQERSFRITFD	1	1
PC (protein, UniProt P11498 21-1178, looked up) Pyruvate carboxylase, …: TAPAASPNVRRLEYKPIKKVMVANRGEIAIRVFRACTELGIRTVAIYSEQDTGQMHRQKADEAYLIGRGLAPVQAYLHIPDIIKVAKENNVDAVHPGYGFLSERADFAQACQDAGVRFIGPSPEVVRKMGDKVEARAIAIAAGVPVVPGTDAPITSLHEAHEFSNTYGFPIIFKAAYGGGGRGMRVVHSYEELEENYTRAYSEALAAFGNGALFVEKFIEKPRHIEVQILGDQYGNILHLYERDCSIQRRHQKVVEIAPAAHLDPQLRTRLTSDSVKLAKQVGYENAGTVEFLVDRHGKHYFIEVNSRLQVEHTVTEEITDVDLVHAQIHVAEGRSLPDLGLRQENIRINGCAIQCRVTTEDPARSFQPDTGRIEVFRSGEGMGIRLDNASAFQGAVISPHYDSLLVKVIAHGKDHPTAATKMSRALAEFRVRGVKTNIAFLQNVLNNQQFLAGTVDTQFIDENPELFQLRPAQNRAQKLLHYLGHVMVNGPTTPIPVKASPSPTDPVVPAVPIGPPPAGFRDILLREGPEGFARAVRNHPGLLLMDTTFRDAHQSLLATRVRTHDLKKIAPYVAHNFSKLFSMENWGGATFDVAMRFLYECPWRRLQELRELIPNIPFQMLLRGANAVGYTNYPDNVVFKFCEVAKENGMDVFRVFDSLNYLPNMLLGMEAAGSAGGVVEAAISYTGDVADPSRTKYSLQYYMGLAEELVRAGTHILCIKDMAGLLKPTACTMLVSSLRDRFPDLPLHIHTHDTSGAGVAAMLACAQAGADVVDVAADSMSGMTSQPSMGALVACTRGTPLDTEVPMERVFDYSEYWEGARGLYAAFDCTATMKSGNSDVYENEIPGGQYTNLHFQAHSMGLGSKFKEVKKAYVEANQMLGDLIKVTPSSKIVGDLAQFMVQNGLSRAEAEAQAEELSFPRSVVEFLQGYIGVPHGGFPEPFRSKVLKDLPRVEGRPGASLPPLDLQALEKELVDRHGEEVTPEDVLSAAMYPDVFAHFKDFTATFGPLDSLNTRLFLQGPKIAEEFEVELERGKTLHIKALAVSDLNRAGQRQVFFELNGQLRSILVKDTQAMKEMHFHPKALKDVKGQIGAPMPGKVIDIKVVAGAKVAKGQPLCVLSAMKMETVVTSPMEGTVRKVHVTKDMTLEGDDLILEIE	1	1
AP2B1 (protein) TDSKYFTTNKKGEIFELKAELNNEKKEKRKEAVKKVIAAMTVGKDVSSLFPDVVNCMQTDNLELKKLVYLYLMNYAKSQPDMAIMAVNSFVKDCEDPNPLIRALAVRTMGCIRVDKITEYLCEPLRKCLKDEDPYVRKTAAVCVAKLHDINAQMVEDQGFLDSLRDLIADSNPMVVANAVAALSEISESHPNSNLLDLNPQNINKLLTALNECTEWGQIFILDCLSNYNPKDDREAQSICERVTPRLSHANSAVVLSAVKVLMKFLELLPKDSDYYNMLLKKLAPPLVTLLSGEPEVQYVALRNINLIVQKRPEILKQEIKVFFVKYNDPIYVKLEKLDIMIRLASQANIAQVLAELKEYATEVDVDFVRKAVRAIGRCAIKVEQSAERCVSTLLDLIQTKVNYVVQEAIVVIRDIFRKYPNKYESIIATLCENLDSLDEPDARAAMIWIVGEYAERIDNADELLESFLEGFHDESTQVQLTLLTAIVKLFLKKPSETQELVQQVLSLATQDSDNPDLRDRGYIYWRLLSTDPVTAKEVVLSEKPLISEETDLIEPTLLDELICHIGSLASVYHKPPNAFVEGSHGIHRKHLPIHHGSTDAGDSPVGTTTATNLEQPQVIPSQGDLLGDLLNLDLGPPVNVPQVSSMQMGAVDLLGGGLDSLVGQSFIPSSVPATFAPSPTPAVVSSGLNDLFELSTGIGMAPGGYVAPKAVWLPAVKAKGLEISGTFTHRQGHIYMEMNFTNKALQHMTDFAIQFNKNSFGVIPSTPLAIHTPLMPNQSIDVSLPLNTLGPVMKMEPLNNLQVAVKNNIDVFYFSCLIPLNVLFVEDGKMERQVFLATWKDIPNENELQFQIKECHLNADTVSSKLQNNNVYTIAKRNVEGQDMLYQSLKLTNGIWILAELRIQPGNPNYTLSLKCRAPEVSQYIYQVYDSILKN	1	1
